Data as given in patent US6013453.

System: T1, zinc finger peptide 1B-2A-3B (synthetic construct)
T1 sequence: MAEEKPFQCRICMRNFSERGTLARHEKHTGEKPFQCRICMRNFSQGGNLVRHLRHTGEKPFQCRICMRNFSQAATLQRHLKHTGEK
Assay: ELONA
Conditions: protein in a lysate after overexpression, label: biotin

“CCCCTTTCTCTTCCAGAAGCCCTTCAGCGGCCA (double strand) [genomic c-ABL intron 1/exon 2 junction]”: binds more weakly (discriminates against c-ABL, variant of p190 BCR-ABL cDNA fusion site).
“TTCCATGGAGACGCAGAAGCCCTTCAGCGGCCA (double strand) [p190 BCR-ABL cDNA fusion site]”: binds (lower affinity than 1A-2A-3B).
“TTCCATGGAGACGCAGGTGAGTTCCTCACGCCA (double strand) [genomic BCR exon 1/intron 1 junction]”: binds more weakly (discriminates against genomic BCR, variant of p190 BCR-ABL cDNA fusion site).

At least one result comes from cells or an extract, where the contact may be indirect. Protein sequences can lack the tags named with them. Construct, isoform or probe ends are uncertain for at least one entry. A weaker result is weaker than the reference pair of the same experiment.
